Test results: PMC10804696
Results are given in words; binding and its absence hold for the method and conditions named. In cells and extracts the contact can be indirect. Some results given as binding are weak or reduced against the parent protein; the word gives no strength.

By UniProt entry, the sequences of proteins in these tests, tags left out. Residues count along the entry.
UniProt P37173, residues 23-567: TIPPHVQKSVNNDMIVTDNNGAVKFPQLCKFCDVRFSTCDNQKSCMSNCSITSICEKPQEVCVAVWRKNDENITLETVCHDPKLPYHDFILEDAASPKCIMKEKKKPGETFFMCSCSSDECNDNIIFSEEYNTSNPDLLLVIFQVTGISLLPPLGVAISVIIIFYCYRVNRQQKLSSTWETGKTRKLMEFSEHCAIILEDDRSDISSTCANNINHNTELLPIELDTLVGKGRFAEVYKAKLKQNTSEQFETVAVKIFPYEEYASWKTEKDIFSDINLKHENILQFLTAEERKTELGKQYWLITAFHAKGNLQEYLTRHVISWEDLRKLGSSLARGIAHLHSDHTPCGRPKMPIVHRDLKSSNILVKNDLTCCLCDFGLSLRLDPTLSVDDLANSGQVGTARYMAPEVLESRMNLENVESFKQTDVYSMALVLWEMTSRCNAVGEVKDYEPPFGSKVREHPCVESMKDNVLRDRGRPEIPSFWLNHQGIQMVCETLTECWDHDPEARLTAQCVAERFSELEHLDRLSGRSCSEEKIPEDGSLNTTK

Molecular target: T1, Tumor endothelial marker 1 (TEM1) (human (endogenous in NHDF)) (UniProt Q9HCU0)
T1 sequence: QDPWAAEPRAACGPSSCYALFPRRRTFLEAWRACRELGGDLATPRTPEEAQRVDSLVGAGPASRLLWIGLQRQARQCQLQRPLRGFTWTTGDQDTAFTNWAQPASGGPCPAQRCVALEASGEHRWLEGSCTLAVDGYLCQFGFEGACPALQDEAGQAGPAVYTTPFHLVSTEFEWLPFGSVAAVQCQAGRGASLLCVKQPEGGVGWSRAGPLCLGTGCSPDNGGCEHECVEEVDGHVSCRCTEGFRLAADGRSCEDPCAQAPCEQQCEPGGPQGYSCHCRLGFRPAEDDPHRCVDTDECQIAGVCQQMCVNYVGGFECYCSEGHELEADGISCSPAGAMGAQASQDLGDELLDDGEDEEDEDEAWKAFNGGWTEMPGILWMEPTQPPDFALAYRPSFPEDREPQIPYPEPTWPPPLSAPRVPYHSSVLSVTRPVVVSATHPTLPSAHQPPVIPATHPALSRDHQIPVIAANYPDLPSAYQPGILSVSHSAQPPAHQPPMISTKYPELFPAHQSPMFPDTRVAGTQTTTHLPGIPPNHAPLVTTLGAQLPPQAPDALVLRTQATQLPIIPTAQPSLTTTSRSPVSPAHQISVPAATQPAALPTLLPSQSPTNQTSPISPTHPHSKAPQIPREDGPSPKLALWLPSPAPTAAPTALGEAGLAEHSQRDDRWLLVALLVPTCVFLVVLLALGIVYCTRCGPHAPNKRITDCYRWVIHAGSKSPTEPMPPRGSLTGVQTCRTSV
Assay: co-IP; NHDF cultured with 10% FBS DMEM, lysed in 0.1% Triton X-100, 0.1 M Tris pH 8.1 with phosphatase and protease inhibitors; 1000 μg lysate with 1 μg anti-TEM1 antibody (or normal rabbit IgG) and protein A and G agarose beads at 4 °C overnight; Western blot; reverse precipitation with a TGFBR2 antibody

## TGF-β receptor II (TGFBR2) (from UniProt P37173 23-567)
  binding: binds
